Results from PMC4051119, “Bacterial actin MreB forms antiparallel double filaments” (eLife, 2014).
No constants are given. Whether binding was seen depends on the method and setting. Binding seen in cells or lysates may run through a third protein. Some results given as binding are weak or reduced against the parent protein; the word gives no strength.

Molecular target: EcMreB-K77C/T119C/C113S/C278S/C324S (E. coli) (UniProt P0A9X4)
Assay: cross-linking; in vivo in E. coli FB17/pFB112/pFB124, cells at late log phase in PBSG with 5 mM EDTA, 100 µM bismaleimidoethane (BMOE) 10 min on ice, quenched with β-mercaptoethanol; Western blot with α-MreB antibodies

B1: EcMreB-K77C/T119C/C113S/C278S/C324S (protein, UniProt P0A9X4 1-347)
chain: MLKKFRGMFSNDLSIDLGTANTLIYVKGQGIVLNEPSVVAIRQDRAGSPKSVAAVGHDAKQMLGRTPGNIAAIRPMCDGVIADFFVTEKMLQHFIKQVHSNSFMRPSPRVLVSVPVGACQVERRAIRESAQGAGAREVFLIEEPMAAAIGAGLPVSEATGSMVVDIGGGTTEVAVISLNGVVYSSSVRIGGDRFDEAIINYVRRNYGSLIGEATAERIKHEIGSAYPGDEVREIEVRGRNLAEGVPRGFTLNSNEILEALQEPLTGIVSAVMVALEQSPPELASDISERGMVLTGGGALLRNLDRLLMEETGIPVVVAEDPLTSVARGGGKALEMIDMHGGDLFSEE
- binding: binds
